Laboratory results: PubChem BioAssay AID720504 (National Center for Advancing Translational Sciences (NCATS), 2013)
About 10,000 (2.8%) of roughly 360,000 compounds were called active. Inconclusive results, whose numbers are uncertain, are shown with a selection of clear calls. Calls come from the whole dose curve; as a rule, active = well fitted inhibition curve with a large enough effect; inconclusive = small, poorly fitted or top-dose-only effect; inactive = flat fitted curve, though single readings scatter. A potency beside an inconclusive call is a rough fit, not a confirmed value.

Sequences of proteins named here, by UniProt entry; tags and fusion partners are left off.
UniProt P53350, whole entry, looked up: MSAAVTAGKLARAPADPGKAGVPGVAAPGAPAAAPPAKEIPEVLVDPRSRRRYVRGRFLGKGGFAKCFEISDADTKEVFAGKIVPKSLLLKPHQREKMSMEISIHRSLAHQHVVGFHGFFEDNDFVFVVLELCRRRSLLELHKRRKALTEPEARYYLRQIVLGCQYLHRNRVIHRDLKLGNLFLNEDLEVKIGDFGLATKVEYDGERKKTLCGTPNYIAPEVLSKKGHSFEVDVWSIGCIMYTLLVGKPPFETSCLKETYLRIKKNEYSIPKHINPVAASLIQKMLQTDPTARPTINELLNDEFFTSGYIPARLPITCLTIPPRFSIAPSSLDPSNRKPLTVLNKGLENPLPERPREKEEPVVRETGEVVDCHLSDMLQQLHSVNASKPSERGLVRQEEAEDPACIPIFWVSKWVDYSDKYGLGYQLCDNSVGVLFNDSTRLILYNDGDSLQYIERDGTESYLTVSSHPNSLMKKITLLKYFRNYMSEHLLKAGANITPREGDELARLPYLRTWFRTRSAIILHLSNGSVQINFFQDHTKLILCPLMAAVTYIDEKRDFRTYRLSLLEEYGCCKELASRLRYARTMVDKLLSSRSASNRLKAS

Molecular target: Serine/threonine-protein kinase PLK1 (Homo sapiens) (UniProt P53350)
Experiment: qHTS for Inhibitors of PLK1-PDB (polo-like kinase 1 - polo-box domain): Primary Screen; note: nearly all actives have a fitted effect of over 65% in size; for max response, negative = inhibition: series mostly up to about 57 µM
Conditions: Plk1 PBD binding of FITC phosphopeptide, fluorescence polarization
% is set by controls: 0 for no effect and ±100 for the full control effect; potency is the fitted concentration of half-maximal effect.

SMILES | Potency | max response, negative = inhibition
CC(=O)Nc1sc2c(c1C(=O)N1CCOCC1)CCCCC2 | inconclusive: 29.9 µM [inhibitor, single point] | –
CC(OC(=O)c1ccc(S(=O)(=O)NCc2ccco2)cc1)C(=O)Nc1ncc(Cl)cc1Cl (centres undefined) | inconclusive: 23.8 µM [inhibitor, partial curve] | –
CCNc1ccc(Br)cc(C(=O)/C=C/c2ccc(Cl)cc2Cl)c1=O | inconclusive: 21.2 µM [inhibitor, partial curve] | –
COC(=O)CC1Sc2ccccc2NC1=O (centres undefined) | inconclusive: 29.9 µM [inhibitor, partial curve] | –
COc1ccc(C(=O)OCC(=O)NC2CCCCCC2)cc1OC | – | inactive: -16.7%
COc1ccc(NC(=O)c2ocnc2C)cc1OC | inconclusive: 29.9 µM [inhibitor, partial curve] | –
O=C1COc2ccc(S(=O)(=O)Nc3ccc(F)cc3)cc2N1 | – | inconclusive: -36.7% [inhibitor]
O=c1cc(O)n(-c2ccccc2)c(=S)[nH]1 | active: 3.36 µM | –
CCOc1ccc(Cc2n[nH]c(=S)n2N)cc1 | inconclusive: 26.7 µM [inhibitor, single point] | –
COc1ccc(CCN2C(=O)C=CC2=O)cc1OC | active: 6.7 µM | –
CCCCN1C(=O)C(=O)NC[C@@H]1CCCCN | inconclusive: 37.7 µM [inhibitor, single point] | –
CCOC(=O)c1cc(-c2ccccc2)sc1NC(=O)C(C)(C)C | – | inactive: -1.35%
Cn1c(NNC(=O)C(c2ccccc2)c2ccccc2)cc(=O)n(C)c1=O | inconclusive: 37.7 µM [inhibitor, single point] | –
COC(OC)c1nc(SCC(=O)Nc2cccc(Cl)c2)ncc1C(=O)O | – | inactive: -0.326%
CCNC(=O)NC(=O)C(C)OC(=O)CCCc1nc2ccccc2s1 (centres undefined) | – | inactive: -2.47%
CCOC(=O)/C(=C/c1ccc(OC(=O)c2ccccc2)cc1)C(C)=O | active: 5.32 µM | –
CN(CCOc1ccccc1)C(=O)c1cc(-c2ccco2)nc2ccccc12 | inconclusive: 26.7 µM [inhibitor, single point] | –
O=c1c2c(-c3ccc(Cl)cc3)csc2ncn1/N=C/c1cccc([N+](=O)[O-])c1O | – | inconclusive: -31.3% [inhibitor]
C=CCSc1nc2c(c(=O)[nH]c(=O)n2C)n1C(C)C | active: 26.7 µM | –
CCc1ccccc1OCc1nc2ccc(S(=O)(=O)N3CCOCC3)cc2[nH]1 | inconclusive: 26.7 µM [inhibitor, single point] | –
O=c1oc2c3c4c(cc2s1)CCCN4CCC3 | active: 26.7 µM | –
Cn1c(=O)oc2cc(S(=O)(=O)N3CCC(C(=O)N4CCN(c5ccccc5)CC4)CC3)ccc21 | – | inactive: 2.8%
CCn1c(CC(=O)Nc2ccc(F)cc2)nnc1SCC(=O)Nc1nnc(C)s1 | – | inactive: 1.85%

4 neighbouring compounds out of the list so far:
SMILES | Potency | max response, negative = inhibition
CCOC(=O)/C(=C/c1ccc(OC(=O)c2ccccc2)cc1)C(C)=O | active: 5.32 µM | –
CN(CCOc1ccccc1)C(=O)c1cc(-c2ccco2)nc2ccccc12 | inconclusive: 26.7 µM [inhibitor, single point] | –
O=c1c2c(-c3ccc(Cl)cc3)csc2ncn1/N=C/c1cccc([N+](=O)[O-])c1O | – | inconclusive: -31.3% [inhibitor]
C=CCSc1nc2c(c(=O)[nH]c(=O)n2C)n1C(C)C | active: 26.7 µM | –

(listing goes on)

SMILES | Potency | max response, negative = inhibition
Cc1ccc([C@@H]2CC=C(C(=O)O)[C@H](c3cccc(Cl)c3)N2S(=O)(=O)c2ccccc2C)cc1 | inconclusive: 29.9 µM [inhibitor, partial curve] | –
CCCCCC1C(=O)N2C=C(c3ccccc3)c3ccccc3N2C1=O (centres undefined) | inconclusive: 29.9 µM [inhibitor, single point] | –
CCCCCN1C2=NCCN2c2ccccc21 | active: 23.8 µM | –
COc1ccc(CCN2CN(S(=O)(=O)c3ccc(OC)cc3)c3nc4ccccc4nc32)cc1 | active: 23.8 µM | –
O=C1c2cccc3c([N+](=O)[O-])ccc(c23)C(=O)N1c1ccccn1 | inconclusive: 26.7 µM [inhibitor, partial curve] | –
N#CC(=C1C=CC(=NO)C(Cl)=C1)c1ccccc1 | inconclusive: 15 µM [inhibitor, partial curve] | –
Cc1cccc(NC(=O)CN(CCc2ccccc2)S(C)(=O)=O)c1 | – | inactive: 7.85%
CCC(=O)N1CCN(c2ccc(NC(=O)COc3ccc(CC)cc3)cc2)CC1 | – | inconclusive: -22.4% [inhibitor]
COc1ccc(C2=Nn3c(nnc3C(F)(F)F)SC2)cc1 | – | inconclusive: -32.4% [inhibitor]
Cc1cc(C(=O)Nc2ccc3c(c2)OCCO3)c(C)o1 | inconclusive: 26.7 µM [inhibitor, partial curve, poor fit] | –
O=NN(CCF)C(=O)NC1CCS(=O)(=O)CC1 | inconclusive: 18.9 µM [inhibitor, single point] | –
Cc1cc2nc(CS)[nH]c2cc1C | inconclusive: 26.7 µM [inhibitor, partial curve] | –
N#CC1=C(N)SC(N)=C(C#N)C1c1ccc([N+](=O)[O-])cc1 | active: 9.47 µM | –
CC(=O)OC1COC(N2CCc3cc(Br)c([N+](=O)[O-])cc32)C(OC(C)=O)C1OC(C)=O (centres undefined) | – | inactive: -0.254%
CC[C@]12c3[nH]c4ccc(OC)cc4c3CCN1C(=O)C(CC(=O)NCc1ccc(OC)c(OC)c1)C[C@@H]2C(=O)N1CCN(C(=O)C2CC2)CC1 (some centres undefined) | inconclusive: 21.2 µM [inhibitor, single point] | –
[O-]/[N+](=C/c1ccc(F)cc1)c1ccc(Cl)cc1 | inconclusive: 26.7 µM [inhibitor, partial curve] | –
C#CCN1[C@@H]2CCN(C2)c2cc(Br)ccc2S1(=O)=O | – | inactive: -7.44%
O=C(Oc1ccc2c(=O)c(Cl)coc2c1)c1ccncc1 | inconclusive: 29.9 µM [inhibitor, partial curve] | –
CCC(=O)N1CCC(c2ccc(OC)cc2)=N1 | inconclusive: 26.7 µM [inhibitor, single point] | –
NNc1nc(NCc2ccccc2)nc(N2CCOCC2)n1 | – | inactive: -2.66%
O=C(NCc1ccccc1)C1CCCN1S(=O)(=O)c1ccc(F)cc1 (centres undefined) | inconclusive: 23.8 µM [inhibitor, single point] | –
CNC(=S)NNC(=O)c1sc2cc(C(F)(F)F)cnc2c1-c1ccccn1 | – | inactive: -6.45%
O=C(NC(NC(=S)Nc1cc(Cl)ccc1Cl)C(Cl)(Cl)Cl)c1ccco1 (centres undefined) | inconclusive: 23.8 µM [inhibitor, partial curve] | –

Record cards, from the list above:
[O-]/[N+](=C/c1ccc(F)cc1)c1ccc(Cl)cc1 reads Potency: inconclusive: 26.7 µM [inhibitor, partial curve]
O=c1oc2c3c4c(cc2s1)CCCN4CCC3 reads Potency: active: 26.7 µM

(cont.)

SMILES | Potency | max response, negative = inhibition
COc1ccc(Nc2nc(-c3ccc4c(c3)NC(=O)CO4)cs2)cc1 | inconclusive: 16.8 µM [inhibitor, partial curve] | –
COc1ccc(C2c3c(oc4ccccc4c3=O)C(=O)N2c2ccccn2)cc1OC (centres undefined) | – | inconclusive: -33.9% [inhibitor]
CC(=O)c1cccc(NC(=S)N2CCN(S(C)(=O)=O)CC2)c1 | inconclusive: 33.6 µM [inhibitor, single point] | –
O=C1c2cccc3c([N+](=O)[O-])ccc(c23)C(=O)N1CC1CCCO1 (centres undefined) | – | inconclusive: -30.7% [inhibitor]
CC(/C=N/NC(=S)Nc1cccc(S(=O)(=O)N(C)C)c1)c1ccccc1 (centres undefined) | inconclusive: 26.7 µM [inhibitor, partial curve, poor fit] | –
CC(=O)OC(C)C1C2=C(C(=O)CC1(C)O)C(=O)c1c(ccc(-c3ccc4c(c3O)C(=O)C3=C(C4=O)C(C(C)OC(C)=O)C(C)(O)CC3=O)c1O)C2=O (centres undefined) | inconclusive: 1.68 µM [inhibitor, full curve] | –
CCn1cc(C(=O)O)c(=O)c2cc(F)c(N3CCN(C(=S)NC(=O)c4ccc(F)c(F)c4)CC3)cc21 | inconclusive: 15 µM [inhibitor, partial curve] | –
Cc1cccc(OCC(=O)Nc2ccccc2N2CCCCC2)c1 | – | inactive: 0.908%
CC(C)NC(=O)c1onc(CSc2ccccn2)c1C(=O)NC(C)C | inconclusive: 33.6 µM [inhibitor, partial curve] | –
O=C(NCCSc1ccccn1)c1ccc(Cl)cc1Cl | inconclusive: 21.2 µM [inhibitor, partial curve] | –
Nc1cccc2c1C(=O)N(c1ccccc1)C2=O | inconclusive: 29.9 µM [inhibitor, partial curve] | –
Cc1cc(C(F)(F)F)nc(SCC(=O)NC2=NC(=O)C(C)S2)n1 (centres undefined) | inconclusive: 37.7 µM [inhibitor, single point] | –
O=[N+]([O-])c1ccc(N=Cc2ccc(Br)c([N+](=O)[O-])c2)cc1 | inconclusive: 21.2 µM [inhibitor, partial curve] | –
COc1ccccc1CNS(=O)(=O)c1ccc2c(c1)N(C(C)=O)CCO2 | inconclusive: 26.7 µM [inhibitor, partial curve] | –
CCOc1ccc(NC(=O)Cn2cc(C(=O)CC)c3ccccc32)cc1 | inconclusive: 37.7 µM [inhibitor, single point] | –
CC(=O)NS(=O)(=O)c1ccc(NC(=O)/C=C/c2ccccc2Cl)cc1 | active: 29.9 µM | –
O=C(N/N=C/c1cc(Br)c(Br)o1)C(O)c1ccccc1 (centres undefined) | inconclusive: 26.7 µM [inhibitor, partial curve] | –
O=C(Nc1nc(-c2ccc(S(=O)(=O)N3CCCC3)cc2)cs1)c1ccco1 | – | inactive: -6.07%
COc1ccccc1NC(=O)NCc1ccco1 | inconclusive: 23.8 µM [inhibitor, single point] | –
Cc1ccc(S(=O)(=O)Nc2ccc(S(=O)(=O)Nc3cc(C)nc(C)n3)cc2)cc1 | – | inactive: 2.16%
Cc1cc(C(C)(C)C)c(O)c(C(C)(C)C)c1 | inconclusive: 26.7 µM [inhibitor, single point] | –
COc1ccc(F)cc1C(=O)C1CCCN(C(=O)CCc2ccccn2)C1 (centres undefined) | inconclusive: 11.9 µM [inhibitor, partial curve] | –
Cc1cc(OC(=O)c2ccccc2)n(CCC#N)n1 | inconclusive: 26.7 µM [inhibitor, partial curve] | –
